Assay results: PMC5342405
No constants are given. Whether binding was seen depends on the method and setting. Binding seen in cells or lysates may run through a third protein. Sequences can lack the tags named with a protein.

Amino acid sequences for entries named in this document (tags omitted).
UniProt P69713: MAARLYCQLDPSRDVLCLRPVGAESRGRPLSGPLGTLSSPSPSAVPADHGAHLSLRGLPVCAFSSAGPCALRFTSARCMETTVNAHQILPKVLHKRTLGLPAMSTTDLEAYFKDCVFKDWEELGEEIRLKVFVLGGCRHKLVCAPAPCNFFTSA

Target: HA-tagged full-length HBx (hepatitis B virus X protein) (hepatitis B virus (adw2 subtype)) (UniProt P69713)
Experiment: co-IP; cells cotransfected with pCMV-MAZ and pCMV-HA/HBx or pCMV-HA/HBxΔ31; lysed 48 h later in TBS with 0.5% NP-40; IP with anti-HA and blot with anti-MAZ, or IP with anti-MAZ and blot with anti-HA

B1: myc-associated zinc finger protein (MAZ) (protein, UniProt P56270 1-477)
chain: MFPVFPCTLLAPPFPVLGLDSRGVGGLMNSFPPPQGHAQNPLQVGAELQSRFFASQGCAQSPFQAAPAPPPTPQAPAAEPLQVDLLPVLAAAQESAAAAAAAAAAAAAVAAAPPAPAAASTVDTAALKQPPAPPPPPPPVSAPAAEAAPPASAATIAAAAATAVVAPTSTVAVAPVASALEKKTKSKGPYICALCAKEFKNGYNLRRHEAIHTGAKAGRVPSGAMKMPTMVPLSLLSVPQLSGAGGGGGEAGAGGGAAAVAAGGVVTTTASGKRIRKNHACEMCGKAFRDVYHLNRHKLSHSDEKPYQCPVCQQRFKRKDRMSYHVRSHDGAVHKPYNCSHCGKSFSRPDHLNSHVRQVHSTERPFKCEKCEAAFATKDRLRAHTVRHEEKVPCHVCGKMLSSAYISDHMKVHSQGPHHVCELCNKGTGEVCPMAAAAAAAAAAAAAAVAAPPTAVGSLSGAEGVPVSSQPLPSQPW
Q: B1 was tested. Which binding did it give?
A: Its binding is “no binding”.
